About 7,700 (2.3%) of roughly 330,000 compounds were called active. Inconclusive results, whose numbers are uncertain, are shown with a selection of clear calls. The call rests on the fitted dose curve; in most records, active means well fitted inhibition curve with a large enough effect; inconclusive means small, poorly fitted or top-dose-only effect, or effect the other way; inactive means flat fitted curve, though single readings scatter. Where the call is inconclusive, the potency comes from a doubtful curve fit.
Assay: qHTS screen for small molecules that inhibit ELG1-dependent DNA repair in human embryonic kidney (HEK293T) cells expressing luciferase-tagged ELG1; further: nearly all actives have a fitted effect of over 55% in size
Conditions: HEK293T ELG1-luciferase reporter, luminescence, 16 h, DNA damage induced by 5-fluorouridine; activity change, negative = inhibition: at 46.1 µM (top of the series)
How it was run: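 Cells (2,000 per well) received 5-fluorouridine plus test compound or DMSO and were incubated 16 hr at 37 °C, 5% CO2. Luciferase activity was read by luminescence 30 min after ONE-Glo addition; signal suppression marked inhibition of damage-induced ELG1 function.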
On the % scale 0 is the no-effect control and ±100 the full control effect; potency means the concentration at half of the fitted maximal effect.

Structure (SMILES) | Potency | activity change, negative = inhibition
Cc1cccc(C)c1Nc1nnc(SCc2nc3ccccc3s2)s1 | inconclusive: 4.11 µM [activator, full curve] | 
CN(C)CCCN(C(=O)/C=C/c1cccs1)c1nc2ccc(F)cc2s1 |  | inactive: 9.07%
CCc1nnc(NC(=O)c2csc3c2CCC(C)C3)s1 (configuration not stated) | inconclusive: 2.59 µM [activator, full curve] | 
CCNC(=S)N(CCc1c(C)[nH]c2ccc(OC)cc12)Cc1cccnc1 |  | inactive: -27.3%
COc1ccc(/C=C/C(=O)Nc2cc(=O)n(C)c(=O)n2C)cc1 | inconclusive: 13 µM [activator, partial curve] | 
O=C(Nc1ccc(Cc2ccncc2)cc1)c1ccc(Cl)c([N+](=O)[O-])c1 | inconclusive: 11.6 µM [inhibitor, partial curve] | 
CO/N=C/C(=N\Nc1ccc(C)cc1)C(=O)c1ccc(OC)cc1 | inconclusive: 5.8 µM [inhibitor, full curve] | 
Cc1ccsc1CCNC(=O)C1CCC(=O)N(CCc2cccc(F)c2)C1 (configuration not stated) | inconclusive: 16.4 µM [activator, partial curve] | 
CN1C(=O)N(C)C2(C)CC1(C)N(C)C(=O)N2C |  | inactive: -2.08%
NC(=O)C1CCN(C(=O)CCC(=O)c2cccs2)CC1 | inconclusive: 16.4 µM [activator, partial curve, poor fit] | 
NC(=O)[C@H]1CC2(CC(c3cccc(NC(=O)[C@H]4CCC(=O)N4)c3)=NO2)CN1C(=O)c1ccccc1 (some centres not stated) | inconclusive: 29.1 µM [activator, partial curve, poor fit] | 
CN(CC(=O)Nc1cccc(F)c1)C(=O)c1ccccc1Sc1ccccc1C#N | active: 15.8 µM | 
COc1ccc(NS(=O)(=O)c2ccc(N3CCOCC3)c(NC(=O)c3cccc(F)c3)c2)cc1 | inconclusive: 29.1 µM [inhibitor, single point] | 
Cc1cc(NCCCOC(C)C)n2c(nc3ccccc32)c1C#N | inconclusive: 20.6 µM [inhibitor, partial curve] | 
COc1cc2[nH]c3c(=O)n(CCN(C(C)C)C(C)C)cnc3c2cc1OC | inconclusive: 18.4 µM [activator, partial curve, poor fit] | 
c1coc(Cn2c(-c3ccco3)nc3ccccc32)c1 | inconclusive: 20.6 µM [activator, partial curve] | 
COC(=O)N/N=C\c1c(C)nn(-c2ccccc2)c1Cl | inconclusive: 18.4 µM [activator, partial curve] | 
CCOc1ccc(NC(=O)CSc2ccc(-c3cccnc3)nn2)cc1 | inconclusive: 20.6 µM [inhibitor, partial curve, poor fit] | 
CCOC(=O)c1[nH]c(CSc2nnc(-c3ccc(OC)cc3)o2)c(C(=O)OCC)c1C | inconclusive: 8.2 µM [inhibitor, partial curve] | 
CCC(C)OC(=O)n1ccc(C(=O)Nc2nccs2)n1 (configuration not stated) | inconclusive: 18.4 µM [activator, single point] | 
Cc1ccc(NC(=S)Nc2ccc(OC(F)F)c(Cl)c2)cc1F | inconclusive: 29.1 µM [inhibitor, single point] | 

Structure (SMILES) | Potency | activity change, negative = inhibition
Cc1c(-c2ccccc2)nc2ccccc2c1C(=O)Oc1ccc([N+](=O)[O-])cc1 | inconclusive: 35.5 µM [inhibitor, single point] | 
O=C(NCCCn1ccnc1)/C(=C\c1ccccc1Cl)NC(=O)c1ccccc1 |  | inactive: -1.08%
COc1ccc2nc(SCCC(=O)O)cc(C)c2c1 |  | inactive: 7.86%
COc1ccc(/C=N/NC(=O)c2cccc(C(=O)N/N=C/c3ccc(OC)c(OC)c3)n2)cc1OC | inconclusive: 1.46 µM [inhibitor, full curve] | 
O=Cc1c[nH]c2ccc(OCc3ccccc3)cc12 | inconclusive: 29.1 µM [activator, single point] | 
COc1ccc(C2c3c(oc4ccccc4c3=O)C(=O)N2CC2CCCO2)cc1 (configuration not stated) | inconclusive: 10.3 µM [inhibitor, partial curve, poor fit] | 
O=C(Nc1nncs1)C(Sc1ccccc1)c1ccccc1 (configuration not stated) |  | inactive: -6.86%
Cc1nn(Cc2ccc(Cl)c(Cl)c2)c(C)c1NC(=O)c1cc(CC(C)C)on1 | inconclusive: 20.6 µM [inhibitor, partial curve] | 
COc1cc(/C=N/NC(N)=O)ccc1OC(=O)c1ccco1 | inconclusive: 0.0065 µM [activator, full curve, poor fit] | 
O=C(Nc1ccc(F)c(Cl)c1)c1ccc2c(c1)OCO2 | inconclusive: 5.17 µM [activator, full curve] | 
COc1ccccc1Nc1nc(N)nc(CN2CCCCC2)n1 | inconclusive: 6.51 µM [inhibitor, single point] | 
Cc1nn(-c2ccccc2)c(C)c1C(=O)NCc1ccccc1F |  | inactive: 13.7%
CCOC(=O)c1c(S(=O)(=O)NCC(=O)Nc2cc(C)ccn2)c(C)n(C)c1C | inconclusive: 32.6 µM [activator, partial curve, poor fit] | 
Cc1cc(=O)oc2c(C)c(OCC(=O)Nc3cccnc3)ccc12 | inconclusive: 13 µM [activator, partial curve] | 
CC(=O)OC1CC2(C)/C(=N\O)CCC2C2CCc3cc(O)ccc3C12 (configuration not stated) |  | inactive: -7.78%
CC1(C(=O)N2CCN(c3ccc([N+](=O)[O-])cc3)CC2)CC1(Cl)Cl (configuration not stated) | inconclusive: 7.3 µM [inhibitor, single point] | 
COc1ccc(-c2cc(C(=O)OC3CCOC3=O)c3ccccc3n2)cc1 (configuration not stated) | inconclusive: 18.4 µM [activator, partial curve, poor fit] | 
COC(=O)c1cn(-c2cccc(C)n2)cn1 | inconclusive: 25.9 µM [activator, single point] | 
COc1cccc(N2CCN(Cc3nc(N)nc(Nc4ccccc4OC)n3)CC2)c1 | inconclusive: 18.4 µM [inhibitor, single point] | 
Cc1ccc(C)c(NC(=O)CN(C)C(=O)[C@@H](NC(N)=O)C(C)C)c1 | inconclusive: 0.146 µM [inhibitor, single point] | 
O=[N+]([O-])c1cc(-c2cnc3ccccc3n2)ccc1Oc1ccc(Br)cc1 | inconclusive: 23.1 µM [activator, single point] | 

One compound at a time (already shown).
Cc1nn(Cc2ccc(Cl)c(Cl)c2)c(C)c1NC(=O)c1cc(CC(C)C)on1 is entered as Potency: inconclusive: 20.6 µM [inhibitor, partial curve]
COc1ccc2nc(SCCC(=O)O)cc(C)c2c1 is entered as activity change, negative = inhibition: inactive: 7.86%
Cc1cc(=O)oc2c(C)c(OCC(=O)Nc3cccnc3)ccc12 is entered as Potency: inconclusive: 13 µM [activator, partial curve]

— PubChem BioAssay AID504467 (National Center for Advancing Translational Sciences (NCATS), 2011)
